This is one part of the list.

Protein sequences, listed by entry. Tags and fused reporters are not part of them. Lines headed by an entry give the natural chain unless they say otherwise; changes in a name come on top.
UniProt O75365, whole entry, looked up: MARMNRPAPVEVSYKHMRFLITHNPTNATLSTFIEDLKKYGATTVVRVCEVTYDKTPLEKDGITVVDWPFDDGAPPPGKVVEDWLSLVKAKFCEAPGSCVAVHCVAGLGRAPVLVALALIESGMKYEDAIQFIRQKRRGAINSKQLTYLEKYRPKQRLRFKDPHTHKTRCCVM
UniProt O75475: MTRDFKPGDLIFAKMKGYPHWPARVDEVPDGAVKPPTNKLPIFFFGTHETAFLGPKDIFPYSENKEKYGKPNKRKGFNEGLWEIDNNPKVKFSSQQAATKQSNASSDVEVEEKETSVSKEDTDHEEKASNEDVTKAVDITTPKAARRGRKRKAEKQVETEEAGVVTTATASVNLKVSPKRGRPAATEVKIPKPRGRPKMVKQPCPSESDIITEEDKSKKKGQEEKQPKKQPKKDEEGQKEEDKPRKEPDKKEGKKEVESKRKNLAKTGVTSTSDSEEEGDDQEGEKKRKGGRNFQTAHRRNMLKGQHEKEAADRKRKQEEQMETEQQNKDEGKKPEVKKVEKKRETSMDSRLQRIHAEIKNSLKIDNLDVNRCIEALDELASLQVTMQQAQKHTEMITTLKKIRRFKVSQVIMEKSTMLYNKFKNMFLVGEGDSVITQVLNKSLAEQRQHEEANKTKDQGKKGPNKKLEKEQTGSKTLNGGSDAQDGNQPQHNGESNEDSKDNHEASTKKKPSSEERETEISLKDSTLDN
UniProt Q96PZ0: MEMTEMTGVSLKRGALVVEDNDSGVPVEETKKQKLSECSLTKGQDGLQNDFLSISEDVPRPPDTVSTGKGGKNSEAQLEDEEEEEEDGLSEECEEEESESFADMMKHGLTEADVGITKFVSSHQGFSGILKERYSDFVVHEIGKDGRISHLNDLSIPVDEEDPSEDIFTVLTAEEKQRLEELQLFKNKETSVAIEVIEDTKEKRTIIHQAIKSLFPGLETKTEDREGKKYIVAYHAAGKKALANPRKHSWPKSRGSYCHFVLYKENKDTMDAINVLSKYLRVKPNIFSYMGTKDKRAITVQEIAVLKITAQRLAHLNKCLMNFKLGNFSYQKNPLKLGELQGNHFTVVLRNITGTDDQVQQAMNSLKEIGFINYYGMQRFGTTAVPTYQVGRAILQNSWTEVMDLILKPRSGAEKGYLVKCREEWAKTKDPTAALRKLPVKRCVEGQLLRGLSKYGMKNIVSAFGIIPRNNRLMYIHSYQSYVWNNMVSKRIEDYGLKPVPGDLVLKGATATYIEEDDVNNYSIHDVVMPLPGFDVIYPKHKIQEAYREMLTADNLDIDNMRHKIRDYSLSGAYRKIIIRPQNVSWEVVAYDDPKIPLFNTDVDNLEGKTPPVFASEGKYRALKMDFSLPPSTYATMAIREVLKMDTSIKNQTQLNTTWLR
UniProt Q6GMV3: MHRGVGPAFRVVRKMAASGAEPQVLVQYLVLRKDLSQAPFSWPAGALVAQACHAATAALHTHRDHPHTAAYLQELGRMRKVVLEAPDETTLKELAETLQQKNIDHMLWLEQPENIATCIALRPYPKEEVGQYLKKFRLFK
UniProt P06454: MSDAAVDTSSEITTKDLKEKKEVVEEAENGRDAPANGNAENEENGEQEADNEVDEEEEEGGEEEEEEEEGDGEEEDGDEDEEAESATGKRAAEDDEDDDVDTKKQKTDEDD
UniProt Q9Y617: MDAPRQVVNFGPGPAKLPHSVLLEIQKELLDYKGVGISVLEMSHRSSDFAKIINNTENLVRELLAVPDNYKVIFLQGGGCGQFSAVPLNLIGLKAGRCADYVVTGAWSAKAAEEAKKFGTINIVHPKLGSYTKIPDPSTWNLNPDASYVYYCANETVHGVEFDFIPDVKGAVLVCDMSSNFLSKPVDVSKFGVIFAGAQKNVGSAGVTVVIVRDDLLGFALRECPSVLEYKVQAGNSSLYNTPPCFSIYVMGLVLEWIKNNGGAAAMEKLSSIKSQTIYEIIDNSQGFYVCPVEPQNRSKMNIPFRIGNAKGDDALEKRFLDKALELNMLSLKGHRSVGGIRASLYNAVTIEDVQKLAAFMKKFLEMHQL
UniProt Q15257: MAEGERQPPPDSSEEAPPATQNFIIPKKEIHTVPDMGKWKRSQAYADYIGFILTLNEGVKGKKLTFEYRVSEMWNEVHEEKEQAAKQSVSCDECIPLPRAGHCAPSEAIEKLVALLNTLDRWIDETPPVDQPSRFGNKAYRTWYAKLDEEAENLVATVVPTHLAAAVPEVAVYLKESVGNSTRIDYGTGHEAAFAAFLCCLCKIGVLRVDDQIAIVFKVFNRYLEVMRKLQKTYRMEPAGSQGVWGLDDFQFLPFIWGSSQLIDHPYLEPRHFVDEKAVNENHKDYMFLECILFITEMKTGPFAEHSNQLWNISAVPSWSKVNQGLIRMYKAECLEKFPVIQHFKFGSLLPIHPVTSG
UniProt Q14671: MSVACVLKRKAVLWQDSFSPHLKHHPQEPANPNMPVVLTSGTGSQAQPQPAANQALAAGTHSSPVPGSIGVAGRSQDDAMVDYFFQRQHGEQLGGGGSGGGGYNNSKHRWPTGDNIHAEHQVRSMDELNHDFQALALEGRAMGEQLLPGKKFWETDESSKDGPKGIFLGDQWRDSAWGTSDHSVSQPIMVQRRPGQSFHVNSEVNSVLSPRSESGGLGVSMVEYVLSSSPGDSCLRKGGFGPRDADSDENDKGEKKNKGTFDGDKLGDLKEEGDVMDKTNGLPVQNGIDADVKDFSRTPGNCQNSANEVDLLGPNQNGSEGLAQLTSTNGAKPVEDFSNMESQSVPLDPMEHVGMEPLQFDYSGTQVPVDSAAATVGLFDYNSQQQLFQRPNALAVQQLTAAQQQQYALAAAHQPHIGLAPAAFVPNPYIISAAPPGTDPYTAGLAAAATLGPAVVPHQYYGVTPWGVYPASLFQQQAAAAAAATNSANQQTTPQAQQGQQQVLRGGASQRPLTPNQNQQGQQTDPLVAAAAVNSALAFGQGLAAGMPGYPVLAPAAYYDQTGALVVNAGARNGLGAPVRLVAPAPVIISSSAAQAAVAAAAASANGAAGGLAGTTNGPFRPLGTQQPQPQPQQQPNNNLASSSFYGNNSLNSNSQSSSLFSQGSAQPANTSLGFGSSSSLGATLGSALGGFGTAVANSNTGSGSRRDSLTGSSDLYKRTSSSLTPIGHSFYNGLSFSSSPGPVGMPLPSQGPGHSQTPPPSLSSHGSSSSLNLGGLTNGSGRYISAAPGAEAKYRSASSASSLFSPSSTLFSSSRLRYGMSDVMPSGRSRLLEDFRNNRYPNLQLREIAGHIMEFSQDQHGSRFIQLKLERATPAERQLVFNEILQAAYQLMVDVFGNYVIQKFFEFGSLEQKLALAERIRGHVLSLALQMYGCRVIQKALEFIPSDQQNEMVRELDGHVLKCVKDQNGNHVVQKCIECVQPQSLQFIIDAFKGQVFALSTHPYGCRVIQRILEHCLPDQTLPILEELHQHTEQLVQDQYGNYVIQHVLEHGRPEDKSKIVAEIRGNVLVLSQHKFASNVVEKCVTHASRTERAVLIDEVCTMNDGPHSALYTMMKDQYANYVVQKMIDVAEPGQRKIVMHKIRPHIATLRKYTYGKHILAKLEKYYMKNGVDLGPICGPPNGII
UniProt Q9Y606: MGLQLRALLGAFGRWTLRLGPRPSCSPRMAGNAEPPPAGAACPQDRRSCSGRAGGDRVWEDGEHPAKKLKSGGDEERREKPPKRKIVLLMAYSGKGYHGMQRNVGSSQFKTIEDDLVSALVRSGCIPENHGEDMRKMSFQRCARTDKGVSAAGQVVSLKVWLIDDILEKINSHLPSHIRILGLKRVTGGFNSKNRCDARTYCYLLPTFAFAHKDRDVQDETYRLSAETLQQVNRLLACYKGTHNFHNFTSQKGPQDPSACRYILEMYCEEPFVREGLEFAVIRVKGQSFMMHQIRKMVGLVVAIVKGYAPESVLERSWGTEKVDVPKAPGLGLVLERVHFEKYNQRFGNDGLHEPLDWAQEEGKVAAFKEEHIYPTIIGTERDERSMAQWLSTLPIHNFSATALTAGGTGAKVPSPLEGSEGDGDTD
UniProt Q92530: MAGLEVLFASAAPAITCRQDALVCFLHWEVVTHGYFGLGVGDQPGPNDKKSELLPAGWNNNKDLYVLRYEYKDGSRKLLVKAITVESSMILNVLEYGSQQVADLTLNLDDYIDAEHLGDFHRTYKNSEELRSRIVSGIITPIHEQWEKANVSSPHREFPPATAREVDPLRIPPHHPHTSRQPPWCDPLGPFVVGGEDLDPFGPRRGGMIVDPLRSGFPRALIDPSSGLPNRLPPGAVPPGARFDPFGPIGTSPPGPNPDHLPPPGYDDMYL
UniProt Q9BZE2: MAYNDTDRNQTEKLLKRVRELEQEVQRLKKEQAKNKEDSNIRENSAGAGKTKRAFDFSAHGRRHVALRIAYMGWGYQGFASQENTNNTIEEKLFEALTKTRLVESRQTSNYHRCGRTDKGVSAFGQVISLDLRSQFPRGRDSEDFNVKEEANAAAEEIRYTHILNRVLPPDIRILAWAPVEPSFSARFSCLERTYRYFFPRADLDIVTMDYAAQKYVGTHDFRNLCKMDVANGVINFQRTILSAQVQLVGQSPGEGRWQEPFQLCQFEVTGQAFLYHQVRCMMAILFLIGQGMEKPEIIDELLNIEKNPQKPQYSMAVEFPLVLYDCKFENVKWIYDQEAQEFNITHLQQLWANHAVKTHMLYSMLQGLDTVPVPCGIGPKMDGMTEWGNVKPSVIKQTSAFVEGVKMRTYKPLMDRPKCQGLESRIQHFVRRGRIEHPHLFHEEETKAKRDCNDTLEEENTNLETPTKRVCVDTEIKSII
UniProt Q06323: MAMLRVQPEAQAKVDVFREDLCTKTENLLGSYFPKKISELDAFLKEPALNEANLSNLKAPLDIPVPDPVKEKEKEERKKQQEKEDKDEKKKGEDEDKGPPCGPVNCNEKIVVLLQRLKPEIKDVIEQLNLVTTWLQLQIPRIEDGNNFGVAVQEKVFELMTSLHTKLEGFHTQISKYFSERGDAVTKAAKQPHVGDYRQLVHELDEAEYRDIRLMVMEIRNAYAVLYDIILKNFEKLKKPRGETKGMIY
UniProt P43378: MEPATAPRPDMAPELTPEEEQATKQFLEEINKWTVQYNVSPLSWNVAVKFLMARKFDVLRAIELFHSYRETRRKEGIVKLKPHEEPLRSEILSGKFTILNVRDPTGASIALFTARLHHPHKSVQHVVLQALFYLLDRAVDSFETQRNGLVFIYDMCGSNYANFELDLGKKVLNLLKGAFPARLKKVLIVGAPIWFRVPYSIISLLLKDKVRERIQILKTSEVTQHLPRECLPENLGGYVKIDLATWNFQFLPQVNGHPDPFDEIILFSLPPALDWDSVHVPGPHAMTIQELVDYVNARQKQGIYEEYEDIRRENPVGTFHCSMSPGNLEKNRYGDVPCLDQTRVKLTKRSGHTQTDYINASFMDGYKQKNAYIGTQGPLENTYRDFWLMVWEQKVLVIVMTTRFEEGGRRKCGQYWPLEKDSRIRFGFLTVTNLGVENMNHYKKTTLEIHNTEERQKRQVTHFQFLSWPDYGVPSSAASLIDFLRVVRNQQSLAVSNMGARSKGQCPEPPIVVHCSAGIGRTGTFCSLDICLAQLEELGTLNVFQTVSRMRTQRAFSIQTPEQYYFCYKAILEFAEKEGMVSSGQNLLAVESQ
UniProt P20618: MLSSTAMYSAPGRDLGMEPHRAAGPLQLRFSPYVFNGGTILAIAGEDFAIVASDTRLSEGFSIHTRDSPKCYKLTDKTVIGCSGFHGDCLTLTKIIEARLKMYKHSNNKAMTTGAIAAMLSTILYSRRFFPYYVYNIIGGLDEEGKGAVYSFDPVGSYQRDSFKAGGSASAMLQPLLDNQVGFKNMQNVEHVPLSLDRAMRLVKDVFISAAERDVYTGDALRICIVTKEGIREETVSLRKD
UniProt Q9H939: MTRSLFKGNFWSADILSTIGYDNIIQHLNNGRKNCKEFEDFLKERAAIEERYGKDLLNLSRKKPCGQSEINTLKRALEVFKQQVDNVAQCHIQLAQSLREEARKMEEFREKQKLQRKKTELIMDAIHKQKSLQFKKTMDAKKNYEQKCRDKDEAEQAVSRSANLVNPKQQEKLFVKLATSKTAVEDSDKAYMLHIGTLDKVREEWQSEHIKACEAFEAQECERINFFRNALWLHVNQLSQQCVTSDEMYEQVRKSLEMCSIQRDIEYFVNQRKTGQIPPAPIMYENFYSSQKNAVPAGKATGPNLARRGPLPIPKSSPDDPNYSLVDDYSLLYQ
UniProt P18031: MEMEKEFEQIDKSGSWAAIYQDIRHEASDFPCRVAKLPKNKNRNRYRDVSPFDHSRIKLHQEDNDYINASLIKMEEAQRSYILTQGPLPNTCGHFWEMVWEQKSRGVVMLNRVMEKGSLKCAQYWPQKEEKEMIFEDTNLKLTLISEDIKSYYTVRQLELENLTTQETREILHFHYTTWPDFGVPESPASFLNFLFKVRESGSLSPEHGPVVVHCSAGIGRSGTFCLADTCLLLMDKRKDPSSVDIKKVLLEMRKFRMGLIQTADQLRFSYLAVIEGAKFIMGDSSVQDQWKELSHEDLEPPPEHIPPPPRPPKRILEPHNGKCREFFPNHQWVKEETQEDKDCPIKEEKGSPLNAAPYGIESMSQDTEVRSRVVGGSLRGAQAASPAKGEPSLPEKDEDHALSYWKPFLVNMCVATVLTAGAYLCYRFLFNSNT

We go through 26 targets from the supplement of paper PMC10849652.

Compound in the first test: O=C1NC(=O)C(c2cnc3ccccn23)=C1c1cn2c3c(cc(F)cc13)CN(C(=O)N1CCCCC1)CC2
Briefly: log2 fold change, soluble protein after heating vs DMSO (PISA); higher = thermal stabilisation; K562 lysate, 10 uM; active = over 0.2 and 3.5 SD of the protein, either way, in both replicates (recomputed). In a few lines: (§1)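 Following dounce homogenisation of K562 pellets in PBS pH 7.4 with 1 mM MgCl2, crude extract at 1 mg/mL protein was incubated for 30 min with 10 μM compound. Aliquots were then heated for 3 min over 48°C-58°C and pooled, NP-40 was added to 0.5% at 4°C, and soluble protein was recovered as the supernatant at 21,000xg for 90 min. Channel-sum-equalised TMTpro 16plex LC-MS/MS quantified this protein. Each value, from duplicates, is a log-two fold change in thermal stability relative to solvent controls.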
Consider PTP4A3 (UniProt O75365), for which the log2 fold change is inactive: 0.375.

Regarding PSIP1 (UniProt O75475), the log2 fold change was inactive: -0.024.

Consider PRPSAP2 (UniProt O60256), for which the log2 fold change was inactive: -0.002.

Turning to PTPN23 (UniProt Q9H3S7), the log2 fold change is inactive: 0.

For the target PTCD3 (UniProt Q96EY7), the log2 fold change is inactive: 0.094.

As to PSMD2 (UniProt Q13200), the log2 fold change was inactive: -0.004.

Turning to PUS7 isoform 2 (UniProt Q96PZ0), the log2 fold change is inactive: 0.011.

Compound in the next test: c1cn2cc(-c3ccc4cn[nH]c4c3)nc(Nc3ccc(N4CCOCC4)cc3)c2n1 [entospletinib]
The description is as above. In a few lines: as §1
For the target PSMB9 (UniProt P28065), the log2 fold change is inactive: 0.

Take PTGFRN (UniProt Q9P2B2): the log2 fold change is inactive: -0.008.

As for PTRHD1 (UniProt Q6GMV3), the log2 fold change was inactive: -0.115.

Regarding PTMA (UniProt P06454), the log2 fold change is inactive: -0.025.

With PSAT1 (UniProt Q9Y617), the log2 fold change was inactive: 0.

Regarding PTPA isoform 2 (UniProt Q15257), the log2 fold change is inactive: 0.008.

For the target PSMA3 (UniProt H0YJ03), the log2 fold change was inactive: 0.09.

In the case of PUF60 isoform 2 (UniProt Q9UHX1), the log2 fold change was inactive: 0.027.

As to PUM1 isoform 3 (UniProt Q14671), the log2 fold change is inactive: -0.009.

Regarding PUS1 (UniProt Q9Y606), the log2 fold change is inactive: -0.022.

With PUS7L (UniProt Q9H0K6), the log2 fold change is inactive: -0.016.

Regarding PSMF1 (UniProt Q92530), the log2 fold change is inactive: -0.018.

As for PUS3 (UniProt Q9BZE2), the log2 fold change is inactive: -0.041.

Regarding PSME1 (UniProt Q06323), the log2 fold change is inactive: 0.006.

Consider PSMD6 isoform 4 (UniProt Q15008), for which the log2 fold change was inactive: 0.025.

PTPN9 (UniProt P43378): the log2 fold change was inactive: -0.26.

For PSMB1 (UniProt P20618), the log2 fold change is inactive: -0.036.

Consider PSTPIP2 (UniProt Q9H939), for which the log2 fold change is inactive: -0.005.

Take PTPN1 (UniProt P18031): the log2 fold change is inactive: 0.048.

As to PTP4A3 (UniProt O75365), the log2 fold change is inactive: -0.029.

As to PSIP1 (UniProt O75475), the log2 fold change is inactive: -0.004.

For the target PRPSAP2 (UniProt O60256), the log2 fold change was inactive: 0.011.

For the target PTPN23 (UniProt Q9H3S7), the log2 fold change is inactive: 0.009.

Regarding PTCD3 (UniProt Q96EY7), the log2 fold change is inactive: 0.029.

PSMD2 (UniProt Q13200): the log2 fold change is inactive: 0.001.

In the case of PUS7 isoform 2 (UniProt Q96PZ0), the log2 fold change is inactive: -0.007.
